For 42 sequences, binding signal results are on record in PMC7819943, “Rice protein-binding microarrays: a tool to detect cis-acting elements near promoter regions in rice”.

The other results are listed elsewhere or left out.

The target in the test is T1, OsSMF1 (Oryza sativa, UniProt Q6ZLB0 1-436).
T1 sequence: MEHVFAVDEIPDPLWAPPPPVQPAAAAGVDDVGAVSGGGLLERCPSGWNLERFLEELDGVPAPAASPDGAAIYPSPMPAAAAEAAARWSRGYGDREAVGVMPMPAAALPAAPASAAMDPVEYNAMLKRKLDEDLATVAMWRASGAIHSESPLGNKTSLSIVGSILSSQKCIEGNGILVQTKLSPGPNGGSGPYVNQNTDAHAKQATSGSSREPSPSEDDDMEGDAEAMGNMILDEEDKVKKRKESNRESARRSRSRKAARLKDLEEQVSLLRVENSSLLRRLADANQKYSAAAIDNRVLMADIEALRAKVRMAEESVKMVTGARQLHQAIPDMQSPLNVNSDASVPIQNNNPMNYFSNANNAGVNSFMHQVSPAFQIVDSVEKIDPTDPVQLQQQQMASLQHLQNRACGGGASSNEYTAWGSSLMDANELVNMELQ
Description: protein-binding microarray (RPBM); PBS, 2% BSA, 51.3 ng/ul salmon testes DNA, 50 uM zinc acetate, 200 nM TF, 25 C, 1 h; high values mean tight binding. The following applies: protein: recombinant; tags: N-terminal polyhistidine and DsRed monomer fusion (pET32a); chain copies: 2; label: CyDye5-dUTP incorporated in the synthesized complementary strand; 3' TTTTT single-stranded linker to array surface; dsDNA, one strand shown. The essentials: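 For the binding signal, per-feature fluorescence intensity was read in arbitrary units on an Axon 4000B scanner. Before scanning, a 2% BSA-blocked custom Agilent array made double-stranded with Cy5-dUTP was washed after 1 h at 25 °C with 200 nM protein and 50 µM zinc acetate. The proteins were Ni–NTA-purified transcription factors with N-terminal polyhistidine and DsRed fusions, expressed in E. coli BL21-CodonPlus.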
For “TGATTCTGTGAGTGCAGTCCTCGTCAGCAATATTATCTAACGGAGTCACCTAGTGCAG”, the binding signal was 6270 fluorescence intensity (a.u.).
As for “AGTACTGGATGTGACACATCCTGGTACTACGAATCTGAACCGGAGTCACCTAGTGCAG”, the figure is 3910 fluorescence intensity (a.u.); as for “GTCGCGGAGCCTCGCCGGGTCGACGGAGAGGATGCCGTGGCGGAGTCACCTAGTGCAG”, 3190 fluorescence intensity (a.u.); as for “GGCTTAATTGTTGATTAAACATCAGGCTCTTCTTGCATATCGGAGTCACCTAGTGCAG”, 23800 fluorescence intensity (a.u.).
As for “CCCTCGCAACGTGCTTTTCGCCAGCGAGTGGTGTAATTTTCGGAGTCACCTAGTGCAG”, the figure is 31600 fluorescence intensity (a.u.).
In the case of “AGCCAAAGCATTTGCCATCCGATGAGGGCGTACTATTAAACGGAGTCACCTAGTGCAG” it was 28000 fluorescence intensity (a.u.); in that of “ATCAGTTTGTCAGTTCTTAAATGACGAGTATTGCATCATGCGGAGTCACCTAGTGCAG”, 4600 fluorescence intensity (a.u.); in that of “TCTGAACTGTTTGTTCAGAAGCGTCATAACTCATAAATTACGGAGTCACCTAGTGCAG”, 36900 fluorescence intensity (a.u.).
“CAGGCAACGCAACGCCAAGAAGGGAAGGGGTCAGGTTCAACGGAGTCACCTAGTGCAG”: the binding signal was 3440 fluorescence intensity (a.u.).
As for “CTGGATCCAGCCAGTGCAACCTCAGCCCGCTAAGCCACGTCGGAGTCACCTAGTGCAG”, the figure is 5720 fluorescence intensity (a.u.); as for “ACCCGTAACTCGTGGATCCCATGTCAGCTACCCACGTTTTCGGAGTCACCTAGTGCAG”, 3770 fluorescence intensity (a.u.); as for “TTCCACCGTGACGTTGATGAGTGGGTCCCGTCGTGATGCCCGGAGTCACCTAGTGCAG”, 4720 fluorescence intensity (a.u.).
Regarding “GTGACGGCGAGCCGTCCGTGTCCGTCACACGCCCATCACGCGGAGTCACCTAGTGCAG”, the binding signal was 4400 fluorescence intensity (a.u.).
As for “AGGACTGCAGCGGTTGAAGGGGTGGTGACTGACTGGTCGGCGGAGTCACCTAGTGCAG”, the binding signal is 3510 fluorescence intensity (a.u.).
In the case of “CTAACACGTCACACAATTACGTCATGTTCGCGTCGCCGAACGGAGTCACCTAGTGCAG” it was 19600 fluorescence intensity (a.u.).
Regarding “GGATGACAACGCACACACTGTTAGGCCTCCTTTGGAACACCGGAGTCACCTAGTGCAG”, the binding signal was 5950 fluorescence intensity (a.u.).
“CATTTTCCACATTCATATTGATGTTAATGATATAAATATGCGGAGTCACCTAGTGCAG”: the binding signal was 33700 fluorescence intensity (a.u.).
With “GCATAATCATGCAGTGGCAAGTGTATGGGGTCTGATTGCTCGGAGTCACCTAGTGCAG”, the binding signal was 3210 fluorescence intensity (a.u.).
In the case of “AGTGTGTGCGTGCCCATGATTTTGTCGCGGCTTTGCTAACCGGAGTCACCTAGTGCAG” it was 4190 fluorescence intensity (a.u.); in that of “ATTTGTTCAACCAGGAATGTAATCCTTTGTTCAGTCATTACGGAGTCACCTAGTGCAG”, 5000 fluorescence intensity (a.u.).
As for “TATCATTAAAATTTTCTTGACCAAAATACCCTCTTCTCCTCGGAGTCACCTAGTGCAG”, the figure is 3180 fluorescence intensity (a.u.); as for “TATTTATATTGTCGACGTTTGATGTCGCGATTCCGGTATTCGGAGTCACCTAGTGCAG”, 3470 fluorescence intensity (a.u.).
As for “GTGCTCGAGGGGCTCGTCGACGTCAACGCGCCGCCGATGCCGGAGTCACCTAGTGCAG”, the figure is 3810 fluorescence intensity (a.u.); as for “GCCCGCGCCCGAACGCCACGCCAAGCTCAGGATCATTTCGCGGAGTCACCTAGTGCAG”, 4820 fluorescence intensity (a.u.).
On to “TTCTCGCAACGCCGTTGCTGATGATGATTCAGCCGAACGGCGGAGTCACCTAGTGCAG”, for which the binding signal was 3480 fluorescence intensity (a.u.).
As for “CCATGTTCAGGATCACGTCAATGCGCCGCCGTTGTCGCTGCGGAGTCACCTAGTGCAG”, the figure is 3600 fluorescence intensity (a.u.).
As for “TGTTTGTCGTGACTTAGCTTAGTTGTTGCTGTTGTTGAGCCGGAGTCACCTAGTGCAG”, the figure is 3400 fluorescence intensity (a.u.).
As for “TGGTAAGGTTGAAAATGGCATCAAAGTGAACAGGCCCTCACGGAGTCACCTAGTGCAG”, the figure is 22200 fluorescence intensity (a.u.); as for “GCTCACCATCGTCACACTGGCTCACTGCTGCATTCCGCATCGGAGTCACCTAGTGCAG”, 3400 fluorescence intensity (a.u.); as for “TGCTCGCCACGCGCGTCCACGTTCCACGTTTGAAGGCATTCGGAGTCACCTAGTGCAG”, 3580 fluorescence intensity (a.u.).
Consider “CGAACTTCACGCCGCCGTGACGCCGTGTCGACTCATCCGACGGAGTCACCTAGTGCAG”, for which the binding signal was 5860 fluorescence intensity (a.u.).
For “TGATCACTAGCACAGTGGTTGTTGCGTCATTATGCGATAACGGAGTCACCTAGTGCAG”, the binding signal is 8420 fluorescence intensity (a.u.).
In the case of “AAAATGGAGAGAAGAGGAAGGGACAGATGACGTGGCATCCCGGAGTCACCTAGTGCAG” it was 48900 fluorescence intensity (a.u.).
Regarding “ATCGCGCTGCCACCTCCGCATCGCGCTGTCACCATCGTCGCGGAGTCACCTAGTGCAG”, the binding signal was 7200 fluorescence intensity (a.u.).
As for “GATCCGTGCATCTACACGTGGCGTAATCTCGTTAGCCCCACGGAGTCACCTAGTGCAG”, the binding signal was 17800 fluorescence intensity (a.u.).
On to “TATTGCATGATAGTTCTGGAAATATGAATGATTAAAATTCCGGAGTCACCTAGTGCAG”, for which the binding signal was 19000 fluorescence intensity (a.u.).
In the case of “AGGTGGAAGTTTGCAATTGCAACACACCACGCCACACAAGCGGAGTCACCTAGTGCAG” it was 4440 fluorescence intensity (a.u.); in that of “GGCCCGCAATCCGTCCGCGCTTTCCGGCCGCGTCCCCTTCCGGAGTCACCTAGTGCAG”, 3300 fluorescence intensity (a.u.).
In the case of “TAAATGTTCGTGTGGCATGCCACATCAGCACCACGTAGGACGGAGTCACCTAGTGCAG” it was 21400 fluorescence intensity (a.u.); in that of “GCAAAGCTGACCTTGCATTGCATTGCCCACAGCTCAACCACGGAGTCACCTAGTGCAG”, 3680 fluorescence intensity (a.u.).
Turning to “AGAATCAACATATAGCCATGTGACGAATGCCATGACGTCACGGAGTCACCTAGTGCAG”, the binding signal was 9780 fluorescence intensity (a.u.).
Consider “AAGATATCATCGATGACATAGCAACTCATGCATCATATCACGGAGTCACCTAGTGCAG”, for which the binding signal was 4590 fluorescence intensity (a.u.).
